Legend:
5-HT7 = 5-HT7 (Homo sapiens, UniProt P34969); test: competitive radioligand binding, recombinant cells; assay type: cell-based
5-HT1D = 5-HT1D (Homo sapiens, UniProt P28221); test: competitive radioligand binding, recombinant cells; assay type: cell-based

Protein sequences, listed by entry. Tags and fused reporters are not part of them. Lines headed by an entry give the natural chain unless they say otherwise; changes in a name come on top.
UniProt P34969, whole entry: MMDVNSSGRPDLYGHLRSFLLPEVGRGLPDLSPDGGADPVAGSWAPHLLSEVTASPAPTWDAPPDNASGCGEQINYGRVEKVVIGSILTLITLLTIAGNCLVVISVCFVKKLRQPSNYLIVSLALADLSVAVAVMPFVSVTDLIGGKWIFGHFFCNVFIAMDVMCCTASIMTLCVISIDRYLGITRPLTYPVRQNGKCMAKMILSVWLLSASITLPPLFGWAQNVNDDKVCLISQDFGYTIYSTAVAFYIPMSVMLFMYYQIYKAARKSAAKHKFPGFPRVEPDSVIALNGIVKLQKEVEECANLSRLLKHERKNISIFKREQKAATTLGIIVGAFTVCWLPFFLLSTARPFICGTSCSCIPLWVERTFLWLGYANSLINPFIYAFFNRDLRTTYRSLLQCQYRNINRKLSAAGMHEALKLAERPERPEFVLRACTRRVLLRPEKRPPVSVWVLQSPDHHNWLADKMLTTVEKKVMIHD
UniProt P28221: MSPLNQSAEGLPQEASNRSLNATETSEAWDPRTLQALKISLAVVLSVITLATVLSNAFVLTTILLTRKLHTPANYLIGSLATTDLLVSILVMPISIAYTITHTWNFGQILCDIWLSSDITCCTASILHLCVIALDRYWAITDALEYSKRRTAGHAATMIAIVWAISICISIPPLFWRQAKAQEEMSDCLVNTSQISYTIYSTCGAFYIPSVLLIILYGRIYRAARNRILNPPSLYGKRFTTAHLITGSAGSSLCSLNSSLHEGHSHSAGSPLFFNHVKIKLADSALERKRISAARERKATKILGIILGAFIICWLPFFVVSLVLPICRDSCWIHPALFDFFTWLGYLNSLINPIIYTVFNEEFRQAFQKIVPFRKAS

Ki (5-HT7): 406 nM | Ki (5-HT1D): 26 nM
Compound: O=c1n(CCCN2CCN(c3cccc(Cl)c3)CC2)nc2ccccn12 [trazodone]

Reference: paper PMC9200067 (Clinical and Translational Science, 2022)
